From patent US11730770B2, “Methods for making and using sinoatrial node-like pacemaker cardiomyocytes and ventricular-like cardiomyocytes” (UNIVERSITY HEALTH NETWORK, priority 2015, dated 2023)
At least one structure is not confirmed: it was looked up by name or label, or the drawing left a doubt.

How the values were obtained:
[1] = tested on: HES3 NKX2-5:GFP reporter line; assay: Flow cytometry of day 20 differentiation cultures for NKX2-5 and cTNT; type: cell-based, human
Experimental: Human pluripotent stem cell lines (Hes3 NKX2-5:GFP)^10 H7 (HESC line approved by NIH registration number 0061^32 and MSC-IPS1^11 were cultured as described^12. For differentiation into the cardiac lineage the established protocol was used with the following modifications (FIG. 1A). 80% confluent hPSCs cultures were dissociated into single cells, suspended in StemPro-34 Media containing 1 ng/ml BMP4 and 10 μM ROCK inhibitor and incubated for 18 h on an orbital shaker to generate embryoid bodies (EBs). The next day (day 1 of differentiation) the EBs were transferred to mesoderm induction media: StemPro-34 containing 10 ng/ml BMP4, 6 ng/ml ActivinA, 5 ng/ml bFGF. At day 3 of differentiation the EBs were washed once using IMDM and suspended in cardiac induction media: StemPro-34 containing 0.5 μM IWP2, 10 ng/ml VEGF, and optionally 5.4 μM SB-431542 (SB, Activin/Nodal/TGFβ inhibitor). At day 5 of differentiation EBs were switched to basic media: Stempro containing 5 ng/ml VEGF. Media was supplemented with VEGF until day 12 of differentiation and changed every 4 days. All cytokines were purchased from R&D systems if not indicated otherwise. […]
For the dissociation of day 3-day 12 EBs TrypLE was used. […] Stained cells were analyzed using the LSR II Flow cytometer (BD). […] Data were analyzed using FlowJo software (Tree Star).

[2] = tested on: SAN pacemaker marker, ventricular marker and cardiac ion channels; assay: Q-PCR analysis of marker gene expression; type: cell-based, human
Experimental: Total RNA was isolated using the RNAqueous-micro Kit (Ambion) followed by a DNase digestion step (Ambion). For RNA isolation from PFA-fixed cells the RecoverAll Kit (Ambion) was used. 500 ng to 1 μg of RNA was reverse transcribed into cDNA using random hexamers and Oligo(dT) primers with Superscript III Reverse Transcriptase (life technologies). QPCRs were performed on the EP RealPlex MasterCycler (Eppendorf) using the QuntiFast SYBR Green PCR Kit (Qiagen) according to the manufacturer's instructions. A 10-fold dilution series of human genomic DNA standards ranging from 25 ng/μl to […] was used to evaluate the efficiency of the PCR and calculate the copy number of each gene relative to the house keeping gene TBP as described previously^13. Human fetal heart tissue gestation stage 17 was purchased from Novogenix Laboratories. After dissecting ventricular, sinoatrial node and atrioventricular node tissue RNA was isolated using the Trizol method (Life Technologies) and treated with DNase (Ambion).

[3] = NKX2-5- SIRPA+ sorted SANLCM, day 20, RA day 3, BMP4 day 3-5

Structure (SMILES) | total cardiomyocytes ([1]; blocking BMP signaling between day 3-5) | generation of cardiomyocytes ([1]; RA 500 nM added at day 2) | expression of MYL2 [2, 3] | expression of TBX5, SHOX2 and ISL1 [2, 3] | expression of TBX5 and SHOX2 ([2]; isolated NKX2-5- SIRPA+ fraction, RA added between days 3 to 5)
c1cc(-c2cnn3cc(-c4ccc(OCCN5CCCCC5)cc4)cnc23)ccn1 [dorsomorphin] | significant reduction | – | – | – | –
CC1=C(/C=C/C(C)=C/C=C/C(C)=C/C(=O)O)C(C)(C)CCC1 [RA, retinoic acid] | – | blocked | further decreased | increased | significant upregulation
